Laboratory results: the supplement of paper PMC12889115
The other results are listed elsewhere or left out. Values are raw readings; no control value is given beside them.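 First-pass screen: polymyxin B was added at a level that permeabilizes the Salmonella outer membrane while sparing the inner membrane. DMSO wells, with and without polymyxin B, defined maximum growth. Because plates differed from one another, each plate's data were ranked separately and the compounds with the lowest OD600 were carried forward as hits.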

Test system: Salmonella enterica serovar Typhimurium SL1344
Assay: bacterial growth OD600 after 18 h with compound and polymyxin B; higher = more bacterial growth (less inhibition)
Conditions: 50 µM, Mueller-Hinton broth

SMILES	bacterial growth OD600 (polymyxin B 0.75 µg/mL)	bacterial growth OD600 (polymyxin B 1 µg/mL)
Cc1cc(-c2ccnc(-n3ncc(C(=O)NC(C)CCCC(C)(C)O)c3C3CC3)n2)c(C)s1 (stereo not given)	0.743	
Cc1c(C(=O)NCCCc2ccccc2)oc2c(F)cccc12		0.249
CCn1ccnc1CN1CCC(C2CCN(Cc3ccc(Cl)cc3)C2)CC1 (stereo not given)	0.752	
O=C1N(Cc2cccnc2)C[C@@H]2C[C@@H](c3ccc(OCc4ccccc4)cc3)N3CCC[C@@]123	0.53	
O=C(NCCN1Cc2ccccc2OC(c2ccccc2F)C1)C(c1cccnc1)N1CCCC1 (stereo not given)	0.601	
CCn1ccnc1CN1CCC(n2nccc2NC(=O)C2CC2)CC1		0.884
O=C(CN1CCCC1=O)NCc1cccnc1Oc1ccccc1		0.964
Cc1cccc(CCNC(=O)CC2C(=O)NCCN2Cc2cccs2)n1 (stereo not given)		1.01
CCOC(=O)C1(Cc2cccc(OC)c2)CCN(Cc2c(C)nn(CC)c2C)CC1		0.856
Cc1cccc(CN2CCCC(C(=O)Nc3ccc(-c4cscn4)cc3)C2)c1 (stereo not given)		0.887
O=C(CCn1cnnn1)N1CCCC(CCc2ccccc2)C1 (stereo not given)	0.85	
Cc1csc(SCC(=O)N2CCc3c(cnc(C)c3CNC(=O)c3ccc4c(c3)OCO4)C2)n1	0.821	
NC(=O)C1(C(=O)N2CCCC(N3CCN(Cc4ccc5c(c4)OCO5)CC3)C2)CC1 (stereo not given)		0.942
COC1CCCN(C(=O)C2(N3CCCCC3)Cc3ccccc3C2)C1 (stereo not given)	0.524	
CC(=O)c1cc(CN2CCC(n3nccc3NC(=O)Cc3ccccc3)CC2)cs1		0.922
Cc1noc(-c2ccc(N3CCCCC3CCN3CCCC3=O)nc2)n1 (stereo not given)		1.1
COCC1CCN(C(=O)c2cn(C(c3ccccc3)c3ccccc3)nn2)C1 (stereo not given)		0.68
Cc1ccccc1C1(CC(=O)N2CCN(CCO)CC2)CC(=O)N(Cc2ccncc2)C1=O (stereo not given)	0.852	
COc1ccccc1C1CN(CC(=O)N(C)CC2CCN(CC(C)C)C2)Cc2ccccc2O1 (stereo not given)	0.617	
Fc1cccc(C2CCCCN2Cc2nc(Cc3ccccc3F)no2)c1 (stereo not given)		0.982

Gathered by group: those above containing a halogen.
SMILES	bacterial growth OD600 (polymyxin B 0.75 µg/mL)	bacterial growth OD600 (polymyxin B 1 µg/mL)
Cc1c(C(=O)NCCCc2ccccc2)oc2c(F)cccc12		0.249
CCn1ccnc1CN1CCC(C2CCN(Cc3ccc(Cl)cc3)C2)CC1 (stereo not given)	0.752	
O=C(NCCN1Cc2ccccc2OC(c2ccccc2F)C1)C(c1cccnc1)N1CCCC1 (stereo not given)	0.601	
Fc1cccc(C2CCCCN2Cc2nc(Cc3ccccc3F)no2)c1 (stereo not given)		0.982
